In PubChem BioAssay AID200 (DTP/NCI, 2004):
The list is a part of this screen's results and no random one: it is rich in T/C values a quarter to a half above the control, in often repeated tests (any T/C) and in doses without a T/C. Other doses and runs of a compound stand elsewhere. T/C: endpoint of the treated group in % of that of the vehicle group. Some entries give survivors of the animals treated and no T/C: the source files T/C as zero there, which appears to mark a toxic dose or a test without result, not a measured value. Some doses without a T/C left all or most animals alive at the check, yet need not have been tolerated: survival well below the control is almost never listed, so the zero probably covers shortened survival too. Counts of survivors are from the toxicity check (mostly the fifth day) where no day follows; animals may have died later. Schedules are NCI's codes, taken here to give the interval after Q, in days (D) or hours (H), and the number of doses after X. Additions like (4×) say how often a value occurs here. Some entries hold several experiments; their values stand side by side, smallest first. Where survival is the endpoint, the PubChem record calls one and a half times the control and up active, and a quarter to a half above the control has no call in these data; cut-offs in other NCI protocols can differ. Some T/C values are followed by the survivors on the day toxicity was checked, most often the fifth; where none is given, no animal had died by that day.

Tested on: B6C3F1 mice, B16 melanoma ip, median survival T/C
Assay: NCI In Vivo Anticancer Drug Screen. Data for tumor model B16 Melanoma (intraperitoneal) in B6C3F1 mice
Settings: T/C endpoint: median survival time, higher T/C = longer survival
In short: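 Antitumor effect was judged in mice with transplanted tumors by dividing the treated group's survival measure by that of vehicle controls.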

[1] = dose: 200.0 mg/kg/injection, schedule: Q01DX009 (ip), vehicle: saline
[2] = dose: 400.0 mg/kg/injection, schedule: Q01DX009 (ip), vehicle: saline
[3] = dose: 12.5 mg/kg/injection, schedule: Q01DX009 (ip), vehicle: saline with Tween-80
[4] = dose: 25.0 mg/kg/injection, schedule: Q01DX009 (ip), vehicle: saline with Tween-80
[5] = dose: 50.0 mg/kg/injection, schedule: Q01DX009 (ip), vehicle: saline with Tween-80
[6] = dose: 6.25 mg/kg/injection, schedule: Q01DX009 (ip), vehicle: Klucel (hydroxypropylcellulose) (HPC)
[7] = dose: 25.0 mg/kg/injection, schedule: Q01DX009 (ip), vehicle: Klucel (hydroxypropylcellulose) (HPC)
[8] = dose: 50.0 mg/kg/injection, schedule: Q01DX009 (ip), vehicle: Klucel (hydroxypropylcellulose) (HPC)
[9] = dose: 100.0 mg/kg/injection, schedule: Q01DX009 (ip), vehicle: Klucel (hydroxypropylcellulose) (HPC)
[10] = dose: 400.0 mg/kg/injection, schedule: Q01DX009 (ip), vehicle: Klucel (hydroxypropylcellulose) (HPC)
[11] = dose: 8.0 mg/kg/injection, schedule: Q01DX009 (ip), vehicle: Klucel (hydroxypropylcellulose) (HPC)
[12] = dose: 16.0 mg/kg/injection, schedule: Q01DX009 (ip), vehicle: Klucel (hydroxypropylcellulose) (HPC)
[13] = dose: 50.0 mg/kg/injection, schedule: Q01DX009 (ip), vehicle: water

## Cc1ccc2nc(-c3ccc4nc(-c5ccc(N=Nc6ccc(-c7nc8ccc(-c9nc%10ccc(C)c(S(=O)(=O)O)c%10s9)cc8s7)cc6)cc5)sc4c3)sc2c1S(=O)(=O)O
dose: 50.0 mg/kg/injection, schedule: Q01DX009 (ip), vehicle: saline
  survivor count: 9 of 10
[1]
  survivor count: 9 of 10
[2]
  survivor count: 0 of 10

## O=NN(CCF)C(=O)NCCO
dose: 7.5 mg/kg/injection, schedule: Q01DX001 (ip), vehicle: saline
  T/C: 128 % of control
dose: 120.0 mg/kg/injection, schedule: Q01DX001 (ip), vehicle: saline
  survivor count: 4 of 9 on day 6

## O=C1C(O)=C(c2ccccc2)C(=O)C(O)=C1c1ccccc1
dose: 100.0 mg/kg/injection, schedule: Q01DX009 (ip), vehicle: saline
  survivor count: 4 of 10 and 6 of 10

## c1ccc([Te][Te]c2ccccc2)cc1
[3]
  T/C: 128 % of control
[4]
  survivor count: 9 of 10
dose: 48.0 mg/kg/injection, schedule: Q01DX009 (ip), vehicle: saline with Tween-80
  survivor count: 8 of 10
[5]
  survivor count: 3 of 10
dose: 100.0 mg/kg/injection, schedule: Q01DX009 (ip), vehicle: saline with Tween-80
  survivor count: 0 of 10
dose: 200.0 mg/kg/injection, schedule: Q01DX009 (ip), vehicle: saline with Tween-80
  survivor count: 0 of 10

## NCCCNCCCCNC(=O)C(O)NC(=O)CC(O)CCCCN=C(N)N (stereo not drawn)
[1]
  survivor count: 1 of 10
[2]
  survivor count: 0 of 10

## CC1=CC(=Nc2ccc(N(CCCl)CCCl)cc2)C=C(C)C1=O
dose: 3.12 mg/kg/injection, schedule: Q01DX009 (ip), vehicle: Klucel (hydroxypropylcellulose) (HPC)
  T/C: 135 % of control
[6]
  T/C: 135 % of control
[7]
  T/C: 128 % of control
[8]
  survivor count: 10 of 10 (2×)
[9]
  survivor count: 10 of 10 and 7 of 7

## CCc1ncnc2cc(OCC3CO3)c(OC)cc12 (stereo not drawn)
dose: 12.5 mg/kg/injection, schedule: Q01DX009 (ip), vehicle: suspension in saline
  T/C: 131 % of control
dose: 25.0 mg/kg/injection, schedule: Q01DX009 (ip), vehicle: suspension in saline
  T/C: 140 % of control
dose: 100.0 mg/kg/injection, schedule: Q01DX009 (ip), vehicle: suspension in saline
  survivor count: 9 of 10

## O=c1[nH]cnc2c1nnn2C1OC(CO)C(O)C1O (stereo not drawn)
[1]
  survivor count: 10 of 10
[2]
  survivor count: 10 of 10

## O=c1[nH]cnc2c1cnn2CN1CCOCC1
dose: 200.0 mg/kg/injection, schedule: Q01DX009 (ip), vehicle: Klucel (hydroxypropylcellulose) (HPC)
  survivor count: 7 of 10
[10]
  survivor count: 1 of 10

## C=C(C)/C([O-])=N/[N+](C)(C)CC(O)CCCCCCCCCCCC (stereo not drawn)
dose: 200.0 mg/kg/injection, schedule: Q01DX001 (ip), vehicle: saline
  survivor count: 10 of 10
dose: 400.0 mg/kg/injection, schedule: Q01DX001 (ip), vehicle: saline
  survivor count: 4 of 10 and 5 of 10
dose: 800.0 mg/kg/injection, schedule: Q01DX001 (ip), vehicle: saline
  survivor count: 0 of 10

## CCCCNc1ccc2nnc(C)n2n1
dose: 200.0 mg/kg/injection, schedule: Q01DX009 (ip), vehicle: DMSO
  survivor count: 6 of 10
dose: 400.0 mg/kg/injection, schedule: Q01DX009 (ip), vehicle: DMSO
  survivor count: 1 of 10 and 7 of 10
dose: 800.0 mg/kg/injection, schedule: Q01DX009 (ip), vehicle: DMSO
  survivor count: 0 of 10

## CC1CCC(NC(=O)N(CCCl)N=O)CC1 (stereo not drawn)
dose: 1.0 mg/kg/injection, schedule: Q01DX009 (ip), vehicle: Klucel (hydroxypropylcellulose) (HPC)
  T/C: 107, 109, 110, 119 [9 of 10 alive], 122 % of control
dose: 2.0 mg/kg/injection, schedule: Q01DX009 (ip), vehicle: Klucel (hydroxypropylcellulose) (HPC)
  T/C: 109, 111, 113, 114, 116 % of control
dose: 4.0 mg/kg/injection, schedule: Q01DX009 (ip), vehicle: Klucel (hydroxypropylcellulose) (HPC)
  T/C: 119 [9 of 10 alive], 122, 133, 141, 143 % of control
dose: 5.0 mg/kg/injection, schedule: Q01DX005 (iv), vehicle: other
  T/C: 142 % of control
[11]
  T/C: 120, 144, 172, 197 % of control [9 of 10 alive]
  survivor count: 10 of 10
dose: 10.0 mg/kg/injection, schedule: Q01DX001 (ip), vehicle: other
  T/C: 126 % of control
dose: 10.0 mg/kg/injection, schedule: Q01DX005 (iv), vehicle: other
  T/C: 128 % of control
[12]
  T/C: 104 and 151 % of control
  survivor count: 10 of 10 and 9 of 9
dose: 20.0 mg/kg/injection, schedule: Q01DX005 (ip), vehicle: other
  survivor count: 10 of 10
dose: 20.0 mg/kg/injection, schedule: Q01DX005 (iv), vehicle: other
  survivor count: 2 of 10
dose: 80.0 mg/kg/injection, schedule: Q01DX001 (ip), vehicle: other
  survivor count: 9 of 10
dose: 80.0 mg/kg/injection, schedule: Q01DX001 (iv), vehicle: other
  survivor count: 10 of 10

## O=C(Oc1ccc(-c2ccc(Br)cc2)cc1)c1ccco1
[3]
  survivor count: 10 of 10

## Cc1c(-c2ccc(-c3ccccc3F)cc2)nc2ccc(F)cc2c1C(=O)O
dose: 12.5 mg/kg/injection, schedule: Q01DX009 (ip), vehicle: water
  T/C: 127 % of control
dose: 25.0 mg/kg/injection, schedule: Q01DX009 (ip), vehicle: water
  survivor count: 10 of 10
[13]
  T/C: 126 % of control
  survivor count: 10 of 10
dose: 100.0 mg/kg/injection, schedule: Q01DX009 (ip), vehicle: water
  survivor count: 9 of 10 and 10 of 10

## CN=C(N)NCCCCCCCCNC(N)=NC
[4]
  survivor count: 7 of 10
[5]
  survivor count: 0 of 10

## O=NN(CCCl)C(=O)Oc1cc(Cl)c(Cl)cc1Cl
[6]
  T/C: 127 and 142 % of control
dose: 12.5 mg/kg/injection, schedule: Q01DX009 (ip), vehicle: Klucel (hydroxypropylcellulose) (HPC)
  T/C: 128 [9 of 10 alive] and 138 % of control
[7]
  T/C: 141 % of control
[8]
  survivor count: 10 of 10
[9]
  survivor count: 0 of 8 and 8 of 10

## CCCCCCCCCCCCN1C(C)=CS/C1=C\C=C\c1scc(C)[n+]1CCCCCCCCCCCC
dose: 3.12 mg/kg/injection, schedule: Q01DX009 (ip), vehicle: saline with Tween-80
  survivor count: 10 of 10
dose: 6.25 mg/kg/injection, schedule: Q01DX009 (ip), vehicle: saline with Tween-80
  survivor count: 4 of 10 and 10 of 10
dose: 12.0 mg/kg/injection, schedule: Q01DX009 (ip), vehicle: saline with Tween-80
  survivor count: 1 of 10
[3]
  survivor count: 3 of 10
[4]
  survivor count: 0 of 10

## N#CCCN(C(=S)Nc1cccc(C(F)(F)F)c1)C1CCCCC1
dose: 800.0 mg/kg/injection, schedule: Q01DX009 (ip), vehicle: saline with Tween-80
  survivor count: 10 of 10

## O=C(O)C1CCCN1C(=O)OCc1ccccc1 (stereo not drawn)
[9]
  survivor count: 10 of 10
[10]
  survivor count: 7 of 10

## O=c1nc(-c2ccco2)sc(=O)[nH]1
[10]
  survivor count: 0 of 10
